# Reference: the supplement of paper PMC8728848
# The other results are listed elsewhere or left out.
# Assays:
# Experiment in all cases: glycan array binding signal (z-score within array); higher = stronger binding
# Conditions in all cases: glycan notation: IUPAC condensed, linker removed
# [1] = biological target: Fuc(a1-2)[Gal(a1-4)]Gal(b1-4)GlcNAc
# In short: (§1)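 Glycan array data came from 3228 arrays in the Consortium for Functional Glycomics database, and only arrays with an available protein sequence were kept. Glycan names were put into IUPAC-condensed notation, and columns mapping to the same glycan were averaged. The binding signal is a within-array Z-score, averaged across arrays of one protein sequence run at different concentrations or buffers and across linkers. A negative Z-score can be read as non-binding.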
# [2] = biological target: Fuc(a1-2)[GalNAc(a1-3)]Gal
# In short: as §1
# [3] = biological target: Fuc(a1-2)[GalNAc(a1-3)]Gal(b1-3)GalNAc(a1-3)[Fuc(a1-2)]Gal(b1-4)GlcNAc
# In short: as §1
# [4] = biological target: Fuc(a1-2)[GalNAc(a1-3)]Gal(b1-3)GalNAc(b1-3)Gal(a1-4)Gal(b1-4)Glc
# In short: as §1
# [5] = biological target: Fuc(a1-2)[GalNAc(a1-3)]Gal(b1-3)GlcNAc
# In short: as §1
# [6] = biological target: Fuc(a1-2)[GalNAc(a1-3)]Gal(b1-3)GlcNAc(b1-2)Man(a1-3)[Fuc(a1-2)[GalNAc(a1-3)]Gal(b1-3)GlcNAc(b1-2)Man(a1-6)]Man(b1-4)GlcNAc(b1-4)GlcNAc
# In short: as §1
# [7] = biological target: Fuc(a1-2)[GalNAc(a1-3)]Gal(b1-3)GlcNAc(b1-2)Man(a1-3)[Fuc(a1-2)[GalNAc(a1-3)]Gal(b1-3)GlcNAc(b1-2)Man(a1-6)]Man(b1-4)GlcNAc(b1-4)[Fuc(a1-6)]GlcNAc
# In short: as §1
# [8] = biological target: Fuc(a1-2)[GalNAc(a1-3)]Gal(b1-3)GlcNAc(b1-3)GalNAc
# In short: as §1
# [9] = biological target: Fuc(a1-2)[GalNAc(a1-3)]Gal(b1-3)GlcNAc(b1-6)GalNAc
# In short: as §1
# [10] = biological target: Fuc(a1-2)[GalNAc(a1-3)]Gal(b1-4)Glc
# In short: as §1
# [11] = biological target: Fuc(a1-2)[GalNAc(a1-3)]Gal(b1-4)GlcNAc
# In short: as §1
# [12] = biological target: Fuc(a1-2)[GalNAc(a1-3)]Gal(b1-4)GlcNAc(b1-2)Man
# In short: as §1
# [13] = biological target: Fuc(a1-2)[GalNAc(a1-3)]Gal(b1-4)GlcNAc(b1-2)Man(a1-3)[Fuc(a1-2)[GalNAc(a1-3)]Gal(b1-4)GlcNAc(b1-2)Man(a1-6)]Man(b1-4)GlcNAc(b1-4)GlcNAc
# In short: as §1
# [14] = biological target: Fuc(a1-2)[GalNAc(a1-3)]Gal(b1-4)GlcNAc(b1-2)Man(a1-3)[Fuc(a1-2)[GalNAc(a1-3)]Gal(b1-4)GlcNAc(b1-2)Man(a1-6)]Man(b1-4)GlcNAc(b1-4)[Fuc(a1-6)]GlcNAc
# In short: as §1
# [15] = biological target: Fuc(a1-2)[GalNAc(a1-3)]Gal(b1-4)GlcNAc(b1-3)Gal(b1-4)GlcNAc
# In short: as §1
# [16] = biological target: Fuc(a1-2)[GalNAc(a1-3)]Gal(b1-4)GlcNAc(b1-3)Gal(b1-4)GlcNAc(b1-3)Gal(b1-4)GlcNAc
# In short: as §1
# [17] = biological target: Fuc(a1-2)[GalNAc(a1-3)]Gal(b1-4)GlcNAc(b1-3)GalNAc
# In short: as §1
# [18] = biological target: Fuc(a1-2)[GalNAc(a1-3)]Gal(b1-4)GlcNAc(b1-3)[Fuc(a1-2)[GalNAc(a1-3)]Gal(b1-4)GlcNAc(b1-6)]GalNAc
# In short: as §1
# [19] = biological target: Fuc(a1-2)[GalNAc(a1-3)]Gal(b1-4)GlcNAc(b1-6)GalNAc
# In short: as §1
# [20] = biological target: Fuc(a1-2)[GalNAc(a1-3)]Gal(b1-4)[Fuc(a1-3)]GlcNAc
# In short: as §1
# [21] = biological target: Fuc(a1-2)[GalNAc(a1-3)]Gal(b1-4)[Fuc(a1-3)]GlcNAc(b1-3)GalNAc
# In short: as §1
# [22] = biological target: Fuc(a1-2)[GalNAc(a1-4)]Gal(b1-4)GlcNAc
# In short: as §1
# [23] = biological target: Fuc(a1-2)[GalNAc(b1-3)]Gal
# In short: as §1
# Fuc(a1-3)GlcNAc = biological target: Fuc(a1-3)GlcNAc
# In short: as §1
# [24] = biological target: Fuc(a1-3)[Gal(b1-4)]Glc6S
# In short: as §1
# [25] = biological target: Fuc(a1-3)[Gal(b1-4)]GlcNAc
# In short: as §1
# [26] = biological target: Fuc(a1-3)[Gal(b1-4)]GlcNAc(b1-2)Man
# In short: as §1
# [27] = biological target: Fuc(a1-3)[Gal(b1-4)]GlcNAc(b1-2)Man(a1-3)[Fuc(a1-3)[Gal(b1-4)]GlcNAc(b1-2)Man(a1-6)]Man(b1-4)GlcNAc(b1-4)GlcNAc
# In short: as §1
# [28] = biological target: Fuc(a1-3)[Gal(b1-4)]GlcNAc(b1-2)Man(a1-3)[Fuc(a1-3)[Gal(b1-4)]GlcNAc(b1-2)Man(a1-6)]Man(b1-4)GlcNAc(b1-4)[Fuc(a1-6)]GlcNAc
# In short: as §1
# [29] = biological target: Fuc(a1-3)[Gal(b1-4)]GlcNAc(b1-3)Gal(b1-3)[Fuc(a1-4)]GlcNAc
# In short: as §1
# [30] = biological target: Fuc(a1-3)[Gal(b1-4)]GlcNAc(b1-3)Gal(b1-4)[Fuc(a1-3)]GlcNAc
# In short: as §1
# [31] = biological target: Fuc(a1-3)[Gal(b1-4)]GlcNAc(b1-3)Gal(b1-4)[Fuc(a1-3)]GlcNAc(b1-3)Gal(b1-4)[Fuc(a1-3)]GlcNAc
# In short: as §1
# [32] = biological target: Fuc(a1-3)[Gal(b1-4)]GlcNAc(b1-3)GalNAc
# In short: as §1
# [33] = biological target: Fuc(a1-3)[Gal(b1-4)]GlcNAc(b1-6)GalNAc
# In short: as §1
# [34] = biological target: Fuc(a1-3)[Gal(b1-4)]GlcNAc(b1-6)[Gal(b1-3)GlcNAc(b1-3)]Gal(b1-4)Glc
# In short: as §1
# [35] = biological target: Fuc(a1-3)[Gal(b1-4)]GlcNAc6S
# In short: as §1
# [36] = biological target: Fuc(a1-3)[Gal3S(b1-4)]Glc
# In short: as §1
# [37] = biological target: Fuc(a1-3)[Gal3S(b1-4)]GlcNAc
# In short: as §1
binder,measurement,setting,value
EUL D1A (Oryza sativa) (protein) MFGFGHHHNQAPAAPSDPNQIFKIFCRANENYCLTVRDSAVVLAPVNPKDEHQHWFKDMRFSTKVKDGEGMPAFALVNKATGLAVKHSLGQSHPVKLVPFNPEYEDASVLWTESKDVGKGFRCIRMVNNTRLNLDAFHGDKDHGGVRDGTTVVLWEWCKGDNQSWKILPWGPEAHSSSPGAATACTIGGVPVHTVRVFSAAGEDYCLTVRNGTACLAPKNPRDDYQHWIKDMRHSNKIRDEEGYPAFALVNKVTGEAIKHSTGQGHPVKLVPYNPEYQDESVLWTESKDVGKGFRCIRMVNNIYLNFDAFHGDKDHGGIHDGTEIVLWKWCEGDNQRWKILPWILEQKLISEEDLNSAVDHHHHHH,glycan array binding signal (z-score),[1],-0.433
same,glycan array binding signal (z-score),[2],-0.299
same,glycan array binding signal (z-score),[3],-0.028
same,glycan array binding signal (z-score),[4],0.216
same,glycan array binding signal (z-score),[5],-0.152
same,glycan array binding signal (z-score),[6],-0.144
same,glycan array binding signal (z-score),[7],-0.33
same,glycan array binding signal (z-score),[8],0.318
same,glycan array binding signal (z-score),[9],-0.533
same,glycan array binding signal (z-score),[10],1.02
same,glycan array binding signal (z-score),[11],-1.24
same,glycan array binding signal (z-score),[12],-0.522
same,glycan array binding signal (z-score),[13],0.177
same,glycan array binding signal (z-score),[14],-0.512
same,glycan array binding signal (z-score),[15],-1.06
same,glycan array binding signal (z-score),[16],0.956
same,glycan array binding signal (z-score),[17],0.622
same,glycan array binding signal (z-score),[18],-1.56
same,glycan array binding signal (z-score),[19],-0.238
same,glycan array binding signal (z-score),[20],-1.51
same,glycan array binding signal (z-score),[21],0.783
same,glycan array binding signal (z-score),[22],-0.759
same,glycan array binding signal (z-score),[23],-0.263
same,glycan array binding signal (z-score),Fuc(a1-3)GlcNAc,-0.688
same,glycan array binding signal (z-score),[24],1.6
same,glycan array binding signal (z-score),[25],-0.723
same,glycan array binding signal (z-score),[26],1.65
same,glycan array binding signal (z-score),[27],-1.11
same,glycan array binding signal (z-score),[28],0.635
same,glycan array binding signal (z-score),[29],-1.37
same,glycan array binding signal (z-score),[30],0.586
same,glycan array binding signal (z-score),[31],-0.849
same,glycan array binding signal (z-score),[32],-0.949
same,glycan array binding signal (z-score),[33],2.13
same,glycan array binding signal (z-score),[34],-0.827
same,glycan array binding signal (z-score),[35],-0.005
same,glycan array binding signal (z-score),[36],0.24
same,glycan array binding signal (z-score),[37],1.85

# Part of the list above, tab-delimited.
binder	measurement	setting	value
EUL D1A (Oryza sativa) (protein) MFGFGHHHNQAPAAPSDPNQIFKIFCRANENYCLTVRDSAVVLAPVNPKDEHQHWFKDMRFSTKVKDGEGMPAFALVNKATGLAVKHSLGQSHPVKLVPFNPEYEDASVLWTESKDVGKGFRCIRMVNNTRLNLDAFHGDKDHGGVRDGTTVVLWEWCKGDNQSWKILPWGPEAHSSSPGAATACTIGGVPVHTVRVFSAAGEDYCLTVRNGTACLAPKNPRDDYQHWIKDMRHSNKIRDEEGYPAFALVNKVTGEAIKHSTGQGHPVKLVPYNPEYQDESVLWTESKDVGKGFRCIRMVNNIYLNFDAFHGDKDHGGIHDGTEIVLWKWCEGDNQRWKILPWILEQKLISEEDLNSAVDHHHHHH	glycan array binding signal (z-score)	[15]	-1.06
same	glycan array binding signal (z-score)	[36]	0.24
